These are yes or no findings as the source states them, for the method shown. In cells and extracts the contact can be indirect. Some results given as binding are weak or reduced against the parent protein; the word gives no strength. For some of these results: Where a sequence is shown, tags or fusion partners need not be part of it.

We go through four molecules from PMC11442487.

Assay [1] concerns the target T1, Trem2, transfected in HEK-293T cells (UniProt Q99NH8).
T1 sequence: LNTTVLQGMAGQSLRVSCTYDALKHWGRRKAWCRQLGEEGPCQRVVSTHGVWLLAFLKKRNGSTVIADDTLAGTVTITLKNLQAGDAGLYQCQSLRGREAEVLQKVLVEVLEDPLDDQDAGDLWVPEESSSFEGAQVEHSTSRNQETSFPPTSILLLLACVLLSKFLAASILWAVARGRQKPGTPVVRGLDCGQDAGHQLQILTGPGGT
Description: co-IP; lysates of transfected HEK-293T in 1x IP lysis buffer; anti-IL-4 or anti-Trem2 antibody at 4°C overnight, Protein A/G Plus-Agarose; western blot.

Assay [2] addresses T2, endogenous Trem2 of RAW 264.7 cells (mouse (endogenous in RAW 264.7)) (UniProt Q99NH8).
T2 sequence: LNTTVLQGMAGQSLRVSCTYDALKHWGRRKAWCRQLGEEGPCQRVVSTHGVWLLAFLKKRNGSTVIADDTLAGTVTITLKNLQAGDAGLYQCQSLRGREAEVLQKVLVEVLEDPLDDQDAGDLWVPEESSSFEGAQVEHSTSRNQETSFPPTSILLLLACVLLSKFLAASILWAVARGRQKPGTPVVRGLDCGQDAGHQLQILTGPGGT
Kind of assay: co-IP; endogenous proteins, lysates of RAW 264.7 and RAW 264.7 IL-4R-KO cells; anti-IL-4 or anti-Trem2 antibody at 4°C overnight, Protein A/G Plus-Agarose; western blot.

Assay [3] concerns the target T3, GST-IL-4 fusion protein (mouse) (UniProt P07750).
T3 sequence: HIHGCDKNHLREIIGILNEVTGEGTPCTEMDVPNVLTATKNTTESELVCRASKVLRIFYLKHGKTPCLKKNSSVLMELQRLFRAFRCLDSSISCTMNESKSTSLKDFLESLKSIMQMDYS
Kind of assay: pull-down; GST-IL-4 immobilized on GST beads, incubated with His-tagged full-length Trem2 or fragments expressed in HEK-293T cells; western blot. Background: A western blot detects proteins with antibodies after separation by electrophoresis.

B1: IL-4, transfected in HEK-293T cells (ligand, UniProt P07750 21-140)
chain: HIHGCDKNHLREIIGILNEVTGEGTPCTEMDVPNVLTATKNTTESELVCRASKVLRIFYLKHGKTPCLKKNSSVLMELQRLFRAFRCLDSSISCTMNESKSTSLKDFLESLKSIMQMDYS
For B1, the binding entry in assay [1] is “binds”.

B2: endogenous IL-4 of RAW 264.7 cells (ligand, UniProt P07750 21-140)
chain: HIHGCDKNHLREIIGILNEVTGEGTPCTEMDVPNVLTATKNTTESELVCRASKVLRIFYLKHGKTPCLKKNSSVLMELQRLFRAFRCLDSSISCTMNESKSTSLKDFLESLKSIMQMDYS
For the molecule B2, the binding entry in assay [2] is on record as “binds”.

B3: His-tagged NT aa133-227 of Trem2 (domain or fragment, UniProt Q99NH8 133-227)
chain: LDDQDAGDLWVPEESSSFEGAQVEHSTSRNQETSFPPTSILLLLACVLLSKFLAASILWAVARGRQKPGTPVVRGLDCGQDAGHQLQILTGPGGT
As to B3, in assay [3], the binding entry is given as “no binding”.

B4: His-tagged N-terminal aa1-aa132 of Trem2 (domain or fragment, UniProt Q99NH8 19-132)
chain: LNTTVLQGMAGQSLRVSCTYDALKHWGRRKAWCRQLGEEGPCQRVVSTHGVWLLAFLKKRNGSTVIADDTLAGTVTITLKNLQAGDAGLYQCQSLRGREAEVLQKVLVEVLEDP
In the case of B4, the binding result in assay [3] was “binds”.
